## Library screen at single concentrations

Protein sequences, listed by entry. Tags and fused reporters are not part of them. Residues count along the entry.
UniProt P9WNZ1, whole entry: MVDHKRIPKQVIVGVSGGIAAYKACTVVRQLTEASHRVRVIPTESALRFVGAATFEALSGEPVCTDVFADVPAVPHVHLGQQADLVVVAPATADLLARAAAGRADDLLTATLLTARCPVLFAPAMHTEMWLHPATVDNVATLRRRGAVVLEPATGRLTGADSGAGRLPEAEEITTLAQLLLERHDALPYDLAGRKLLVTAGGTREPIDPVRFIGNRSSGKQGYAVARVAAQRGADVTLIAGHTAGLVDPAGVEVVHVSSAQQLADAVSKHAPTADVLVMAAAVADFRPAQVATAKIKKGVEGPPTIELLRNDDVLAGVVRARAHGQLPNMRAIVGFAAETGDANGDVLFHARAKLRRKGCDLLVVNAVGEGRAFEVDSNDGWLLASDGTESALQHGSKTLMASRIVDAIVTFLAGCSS
UniProt P9WFT3, whole entry: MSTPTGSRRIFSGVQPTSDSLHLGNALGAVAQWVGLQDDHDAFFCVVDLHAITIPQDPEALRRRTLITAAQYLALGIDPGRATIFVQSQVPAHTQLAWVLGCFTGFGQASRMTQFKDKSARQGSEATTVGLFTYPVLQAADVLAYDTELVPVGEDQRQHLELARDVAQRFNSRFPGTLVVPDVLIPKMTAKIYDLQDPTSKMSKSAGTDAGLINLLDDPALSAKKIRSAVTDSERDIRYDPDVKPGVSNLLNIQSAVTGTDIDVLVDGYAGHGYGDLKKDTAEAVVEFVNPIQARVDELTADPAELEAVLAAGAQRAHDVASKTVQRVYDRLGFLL
UniProt Q4DA54, 1-478: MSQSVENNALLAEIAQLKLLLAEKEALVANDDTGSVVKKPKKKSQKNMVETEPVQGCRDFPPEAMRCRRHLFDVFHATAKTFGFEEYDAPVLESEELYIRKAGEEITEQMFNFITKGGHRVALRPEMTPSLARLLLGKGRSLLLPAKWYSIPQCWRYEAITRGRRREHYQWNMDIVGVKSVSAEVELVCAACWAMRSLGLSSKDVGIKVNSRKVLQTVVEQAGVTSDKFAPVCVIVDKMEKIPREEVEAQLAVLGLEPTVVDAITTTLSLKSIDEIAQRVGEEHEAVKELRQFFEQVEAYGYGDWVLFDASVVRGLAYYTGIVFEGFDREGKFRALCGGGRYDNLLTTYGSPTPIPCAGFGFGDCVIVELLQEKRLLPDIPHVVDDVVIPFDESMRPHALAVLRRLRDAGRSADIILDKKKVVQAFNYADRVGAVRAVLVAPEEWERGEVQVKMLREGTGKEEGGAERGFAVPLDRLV
UniProt Q8IDJ8, 1-583: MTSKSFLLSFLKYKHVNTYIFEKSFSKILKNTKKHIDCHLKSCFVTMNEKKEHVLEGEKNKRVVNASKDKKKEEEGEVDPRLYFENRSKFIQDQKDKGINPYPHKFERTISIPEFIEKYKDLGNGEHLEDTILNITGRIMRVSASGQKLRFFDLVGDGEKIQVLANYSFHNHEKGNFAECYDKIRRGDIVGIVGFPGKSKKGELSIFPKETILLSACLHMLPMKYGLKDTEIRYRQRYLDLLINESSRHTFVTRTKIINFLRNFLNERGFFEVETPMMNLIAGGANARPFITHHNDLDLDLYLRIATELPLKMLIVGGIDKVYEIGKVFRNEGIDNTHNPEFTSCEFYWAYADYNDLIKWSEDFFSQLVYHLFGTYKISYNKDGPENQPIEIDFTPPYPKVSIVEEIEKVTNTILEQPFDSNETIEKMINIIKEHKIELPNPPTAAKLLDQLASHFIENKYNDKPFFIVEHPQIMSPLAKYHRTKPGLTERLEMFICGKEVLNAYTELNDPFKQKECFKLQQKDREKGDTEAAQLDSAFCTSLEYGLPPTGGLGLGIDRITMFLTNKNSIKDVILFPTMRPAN

Results are given as percent effect. The controls that fix the scale are not given in the record; negative values are as filed. This is an unselected part of the compounds tested. A dash means the value is not listed here; it may have been measured.

CoaBC: 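Coenzyme A biosynthesis protein CoaBC, Mycobacterium tuberculosis (UniProt P9WNZ1). Enzyme assay of CoaBC with a phosphate dye (Biomol Green) read at 650 nm. Concentration: 30 µM. Direction is inferred from only a few compounds that gave an IC50; most scored high, so higher reads as stronger inhibition. Most strong results did not repeat in a second test. Size under these conditions: about 67,000 compounds, about 40 of them at 50% or above in at least one test.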
MtTrpRS: 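Enzyme assay of tryptophanyl-tRNA synthetase; the read-out is not stated. Target: Tryptophan-tRNA ligase, Mycobacterium tuberculosis (UniProt P9WFT3). Compounds at 10 µM. Higher most likely means stronger inhibition; the record gives no direction and few retests gave an IC50. Of about 65,000 compounds tested this way, about 64 (0.098%) reached 50% or more in at least one test.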
TcHisRS: 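Enzyme assay of histidyl-tRNA synthetase; the read-out is not stated. Target: Histidine-tRNA ligase, Trypanosoma cruzi CL Brener (UniProt Q4DA54). Compounds at 30 µM. Direction is inferred from retests: higher values go with stronger inhibition. Size under these conditions: about 69,000 compounds, about 31 of them at 50% or above in at least one test.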
PfKRS1: 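Lysine-tRNA ligase, Plasmodium falciparum 3D7 (UniProt Q8IDJ8). Enzyme assay of the cytosolic lysyl-tRNA synthetase in 384-well plates, read by luminescence. Compounds at 30 µM. Higher reads as stronger inhibition, judged from the few compounds that gave an IC50. Size under these conditions: about 69,000 compounds, about 49 of them at 50% or above in at least one test.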

SMILES	CoaBC	MtTrpRS	TcHisRS	PfKRS1
CC1CCN(c2ncc(C#N)c(N)n2)CC1	3.155%	-	9.091%	3.767%
CN(C)c1ncc(CNS(=O)(=O)c2cc(F)ccc2Cl)n1C	13.1%	-2.16%	-22.41%	3.379%
CCCN(Cc1nccn1C)C(=O)C(CC)Nc1cccc(OC)c1 (centres undefined)	10.49%	-4.326%	5.759%	7.942%
CN(C)C(CNCc1nc(-c2ccsc2)no1)c1ccco1 (centres undefined)	1.86%	1.821%	3.175%	1.158%
Cc1cccc(C)c1-n1nnnc1C1(NCc2ccco2)CCCC1	-1.942%	4.752%	6.931%	1.277%
COc1ncccc1CNC(=O)c1cccnc1O	-0.5181%	-2.747%	2.29%	2.157%
CCCS(=O)(=O)N1CCC(c2ccc(OC)cc2)CC1	0.7299%	2.687%	6.667%	-0.2538%
CC(C)Cc1noc(CN2CCN(C(=O)c3ccco3)CC2)n1	4.946%	-3.043%	0.8264%	1.909%
CC(=O)NCCCSC1CCN(c2ccccc2Cl)C1=O (centres undefined)	3.293%	2.914%	6.627%	2.323%
Cc1nc(O)c2nnn(C[C@H]3CCCN3C(=O)c3ccccc3C)c2n1	2.421%	-	5.556%	-0.9814%
CN(C)CC(C)(O)CNC(=O)Nc1sc2ccccc2c1Cl (centres undefined)	-40.29%	2.601%	-1.587%	3.704%
Cc1cnc(N2CC[C@@H]3OC(COCC(=O)N(C)C)CC[C@@H]32)nc1 (some centres undefined)	10.37%	2.571%	-0.6135%	1.616%
N#Cc1cnn(C(=O)CCCOc2ccccc2Cl)c1N	-5.806%	4.662%	3.448%	5.349%
CCC[C@H]1CN(Cc2ccc3c(c2)OCCO3)C[C@@H]1NC(=O)COC	1.086%	0.3623%	3.518%	3.174%
CN1C[C@@H](NC(=O)CC(C)(C)C)C[C@H]1c1nc(-c2cnccn2)no1	16.7%	1.297%	4.478%	6.861%
CC(C)n1ccc(-c2cc(C(=O)N3CCN(C)CC3)c3ccccn23)n1	-3.893%	-4.026%	6.897%	2.594%
CCC(=O)N1CCC(Cc2cnc(Nc3cnccn3)cn2)CC1	-2.85%	-4.008%	5.385%	1.09%
Cn1cccc1CN1CCC2(CCCN(C(=O)c3cccnc3)C2)CC1	-1.089%	-7.596%	7.65%	4.598%
Cc1nc(CN2CCCn3cnc(COCC4CC4)c3C2)cs1	3.226%	3.996%	5.473%	3.783%
CC(C)CN1CCCC1c1ccc(C(=O)Nc2cc[nH]n2)s1 (centres undefined)	10.33%	-4.156%	4.046%	-0.02292%
Cc1cc(C)n(CC(=O)N(CC2CN(C)CCO2)c2nccs2)n1 (centres undefined)	5.448%	0.9331%	0.9901%	3.056%
COCCNC(=O)c1cc2c(c3ccccc3n2C)n1C(=O)N(C)C	7.099%	2.063%	5.882%	1.302%
CCN(CCOC)C(=O)c1ccc2c(c1)nc(N1CC[C@H](O)C1)n2C	5.912%	0.5442%	0.8929%	7.738%
O=C(CN1CCSCC1c1ccccc1)N1CCOCC1 (centres undefined)	0.7968%	-5.444%	7.368%	8.475%
COCCN1CCc2ncnc(N(C)C)c2CC1	2.97%	-	0%	4.39%
COc1ccc(-c2n[nH]cc2CN2CCSCC2)c(OC)c1	-1.242%	1.156%	5.641%	-1.439%

Some entries from above, unchanged:

- CCCN(Cc1nccn1C)C(=O)C(CC)Nc1cccc(OC)c1 (centres undefined) : CoaBC: 10.49%; MtTrpRS: -4.326%; TcHisRS: 5.759%; PfKRS1: 7.942%
- CCN(CCOC)C(=O)c1ccc2c(c1)nc(N1CC[C@H](O)C1)n2C : CoaBC: 5.912%; MtTrpRS: 0.5442%; TcHisRS: 0.8929%; PfKRS1: 7.738%

Measurements from “University of Dundee, Small-Polar-MMV Screening Library” (2021), ChEMBL document CHEMBL3988442.